“And” between values parts separate entries of the source, which are not always exact repeats. Identical values can stand only once. The name of at least one read-out is uncertain.
What was measured:
Assay type in all cases: in vivo
Echinochloa crus-galli = assay: Pre-emergence herbicidal activity, glasshouse pot test; details: pre-emergence spray, rate 1000 g/ha, evaluated after 13 days, scale 0-5
Description: (§1) Seeds of a variety of test species were sown in standard soil in pots. After cultivation for one day (pre-emergence) under controlled conditions in a glasshouse (at 24/16° C., day/night; 14 hours light; 65% humidity), the plants were sprayed with an aqueous spray solution derived from the formulation of the technical active ingredient in acetone/water (50:50) solution containing 0.5% Tween 20 (polyoxyethelyene sorbitan monolaurate, CAS RN 9005-64-5). The test plants were then grown in a glasshouse under controlled conditions (at 24/16° C., day/night; 14 hours light; 65% humidity) and watered twice daily. After 13 days, the test was evaluated (5=total damage to plant; 0=no damage to plant).
(§2) ABUTH=Abutilon theophrasti; SOLNI=Solanum nigrum; AMARE=Amaranthus retroflexus; SETFA=Setaria faberi; ALOMY=Alopecurus myosuroides; ECHCG=Echinochloa crus-galli, ZEAMX=zea mays.

Setaria faberi = assay: as above; details: pre-emergence spray, rate 1000 g/ha, evaluated after 13 days, scale 0-5
Description: as §1, §2

zea mays [1] = assay: as above; details: pre-emergence spray, rate 1000 g/ha, evaluated after 13 days, scale 0-5
Description: as §1, §2

Alopecurus myosuroides [2] = assay: as above; details: pre-emergence spray, rate 1000 g/ha, evaluated after 13 days, scale 0-5
Description: as §1, §2

zea mays [3] = assay: Post-emergence herbicidal activity, glasshouse pot test; set-up: key: 0 = no damage to plant, 5 = total damage to plant; details: Application post-emergence, rate 1000 g/ha, evaluated after 13 days
Description: (§3) Seeds of a variety of test species were sown in standard soil in pots. After 8 days cultivation (post-emergence) under controlled conditions in a glasshouse (at 24/16° C., day/night; 14 hours light; 65% humidity), the plants were sprayed with an aqueous spray solution derived from the formulation of the technical active ingredient in acetone/water (50:50) solution containing 0.5% Tween 20 (polyoxyethelyene sorbitan monolaurate, CAS RN 9005-64-5). The test plants were then grown in a glasshouse under controlled conditions (at 24/16° C., day/night; 14 hours light; 65% humidity) and watered twice daily. After 13 days, the test was evaluated (5=total damage to plant; 0=no damage to plant).
as §2

Alopecurus myosuroides [4] = assay: as above; set-up: key: 0 = no damage to plant, 5 = total damage to plant; details: Application post-emergence, rate 1000 g/ha, evaluated after 13 days
Description: as §3, §2

COC1=C(C)C(O)N(c2cc(C(C)C)c(C(=O)NC(C)(C)C)cn2)C1=O (stereo not drawn) [AI30] was tested, and the “ECHCG damage score, application pre-emergence” value (Echinochloa crus-galli) was 4 and 5, the “SETFA damage score, application pre-emergence” value (Setaria faberi) was 4 and 5 and the “ZEAMX damage score, application pre-emergence” value (zea mays [1]) was 3 and 2. The “ALOMY damage score, application pre-emergence” value (Alopecurus myosuroides [2]) was 3 and 4, the “ZEAMX herbicidal damage score” value (zea mays [3]) was 3 and 5 and the “ALOMY herbicidal damage score” value (Alopecurus myosuroides [4]) was 4 and 5.

From patent US9963445B2, “Chemical compounds” (SYNGENTA PARTICIPATIONS AG, priority 2013, dated 2018)
